Our source for the survivor count and T/C values is PubChem BioAssay AID248 (DTP/NCI, 2004).

Molecules are shown by their SMILES. The list shows only some results of the screen, not a fair sample: it is rich in T/C values a quarter to a half above the control, in often repeated tests (any T/C) and in doses without a T/C. Other doses and runs of a compound stand elsewhere. T/C: endpoint of the treated group in % of that of the vehicle group. Some entries give survivors of the animals treated and no T/C: the source holds a T/C of zero for them, seemingly a mark for toxic or unscored doses. Some survivor counts are full or nearly so, which does not show that the dose was tolerated: the source hardly ever lists a survival T/C far under the control, and the zero likely stands for such cases as well. Survivors were counted at the toxicity check, usually on the fifth day, unless a day is given; later deaths do not show. Schedules are NCI's codes, taken here to give the interval after Q, in days (D) or hours (H), and the number of doses after X. Some doses were run more than once; their values stand side by side, smallest first. Some schedule codes hold Z or #, which are not explained here. For survival time, this PubChem deposit counts one and a half times the control or more as active, and values a quarter to a half above the control carry no call in these data; other NCI protocols may use other cut-offs. Some T/C values carry the count of animals alive at the toxicity check (mostly the fifth day); where none is given, no animal had died by that day. Counts like (3×) give the number of equal values in this list.

The test system of this test is L1210 leukemia ip in BDF1 mice, survival T/C. Nature of the test: NCI In Vivo Anticancer Drug Screen. Data for tumor model L1210 Leukemia (intraperitoneal) in B6D2F1 (BDF1) mice. Conditions: T/C endpoint: mean survival time, higher T/C = longer survival.
Setting [1] is: dose: 400.0 mg/kg/injection, schedule: Q01DX001 (ip), vehicle: saline.
Setting [2] is: dose: 100.0 mg/kg/injection, schedule: Q04DX002 (ip), vehicle: saline with Tween-80.
[3] abbreviates: dose: 200.0 mg/kg/injection, schedule: Q04DX002 (ip), vehicle: saline with Tween-80.
[4] abbreviates: dose: 400.0 mg/kg/injection, schedule: Q04DX002 (ip), vehicle: saline with Tween-80.
Setting [5] is: dose: 400.0 mg/kg/injection, schedule: Q04DX003 (ip), vehicle: saline with Tween-80.
The mark [6] stands for this setting: dose: 400.0 mg/kg/injection, schedule: Q01DX001 (ip), vehicle: Klucel (hydroxypropylcellulose) (HPC).
Where [7] appears, read: dose: 400.0 mg/kg/injection, schedule: Q04DX003 (ip), vehicle: Klucel (hydroxypropylcellulose) (HPC).
The mark [8] stands for this setting: dose: 400.0 mg/kg/injection, schedule: Q01DX001 (ip), vehicle: saline with Tween-80.
Where [9] appears, read: dose: 100.0 mg/kg/injection, schedule: Q01DX009 (ip), vehicle: Klucel (hydroxypropylcellulose) (HPC).
Where [10] appears, read: dose: 200.0 mg/kg/injection, schedule: Q01DX009 (ip), vehicle: Klucel (hydroxypropylcellulose) (HPC).
Setting [11] is: dose: 400.0 mg/kg/injection, schedule: Q01DX009 (ip), vehicle: Klucel (hydroxypropylcellulose) (HPC).
Where [12] appears, read: dose: 200.0 mg/kg/injection, schedule: Q01DX009 (ip), vehicle: saline with Tween-80.
[13] abbreviates: dose: 50.0 mg/kg/injection, schedule: Q04DX002 (ip), vehicle: saline with Tween-80.

For `O=C/C=C/c1cccc([N+](=O)[O-])c1`, under setting [1], the survivor count is reported as 1 of 4.

As for `CCCCC[CH2][Sn]([I])([CH2]C)[CH2]C`, the survivor count (dose: 6.25 mg/kg/injection, schedule: Q01DX009 (ip), vehicle: saline) is recorded as 1 of 6; the survivor count under setting [2] was 0 of 3; the survivor count under setting [3] is recorded as 0 of 3; the survivor count under setting [4] was 0 of 3.

`NS(=O)(=O)c1ccc(Cl)cc1`: the survivor count is 0 of 6 (dose: 200.0 mg/kg/injection, schedule: Q01DX009 (ip), vehicle: saline) and 4 of 6 under setting [5].

As for `COc1cc(C(=O)NC(=S)NCc2ccncc2)cc(OC)c1OC`, the survivor count (dose: 400.0 mg/kg/injection, schedule: Q04DX002 (ip), vehicle: Klucel (hydroxypropylcellulose) (HPC)) is given as 0 of 3.

On to `CN1CCN=C1c1ccc(NC(=O)c2ccc(C(=O)Nc3ccc(C4=NCCN4C)cc3)c(N)c2)cc1`, for which the T/C (dose: 1.5 mg/kg/injection, schedule: Q01DX Z (ip), vehicle: carboxymethylcellulose (CMC)) is 131 % of control.

`CC1(CNC(=O)C(=O)NCC2(C)CO2)CO1` (configuration not stated): the T/C runs as follows: (dose: 35.0 mg/kg/injection, schedule: Q01DX009 (ip), vehicle: saline) 136 % of control; (dose: 66.0 mg/kg/injection, schedule: Q01DX Z (ip), vehicle: other) 140 % of control; (dose: 75.0 mg/kg/injection, schedule: Q01DX009 (ip), vehicle: saline) 128 % of control; (dose: 100.0 mg/kg/injection, schedule: Q01DX Z (ip), vehicle: carboxymethylcellulose (CMC)) 134 % of control; (dose: 100.0 mg/kg/injection, schedule: Q01DX Z (ip), vehicle: saline) 129 and 130 % of control; (dose: 100.0 mg/kg/injection, schedule: Q04DX003 (ip), vehicle: saline) 136 % of control. For the same compound, the T/C by setting is: (dose: 132.0 mg/kg/injection, schedule: Q04DX003 (ip), vehicle: saline) 148 % of control; (dose: 150.0 mg/kg/injection, schedule: Q01DX Z (ip), vehicle: saline) 131 % of control; (dose: 200.0 mg/kg/injection, schedule: Q01DX001 (ip), vehicle: saline) 135 % of control; (dose: 200.0 mg/kg/injection, schedule: Q04DX003 (ip), vehicle: saline) 140 % of control; (dose: 225.0 mg/kg/injection, schedule: Q01DX Z (ip), vehicle: saline) 135 % of control; (dose: 338.0 mg/kg/injection, schedule: Q01DX Z (ip), vehicle: saline) 148 % of control. Under setting [1], the T/C is 138 % of control. Further, the survivor count (dose: 338.0 mg/kg/injection, schedule: Q01DX Z (ip), vehicle: carboxymethylcellulose (CMC)) was 2 of 6; the survivor count under setting [1] is 0 of 4; the survivor count (dose: 400.0 mg/kg/injection, schedule: Q01DX009 (ip), vehicle: saline) was 4 of 6; the survivor count (dose: 500.0 mg/kg/injection, schedule: Q01DX Z (ip), vehicle: other) is reported as 3 of 6; the survivor count (dose: 600.0 mg/kg/injection, schedule: Q01DX001 (ip), vehicle: saline) is given as 5 of 6; the survivor count (dose: 750.0 mg/kg/injection, schedule: Q01DX Z (ip), vehicle: other) is 0 of 6.

For `CCCCN=C=NCCCC`, the survivor count under setting [6] is listed as 4 of 6.

As to `[Cl][Pt][Cl].[NH-]CCN1CC1`, the survivor count (dose: 100.0 mg/kg/injection, schedule: Q01DX001 (ip), vehicle: Klucel (hydroxypropylcellulose) (HPC)) is given as 0 of 6; the survivor count (dose: 200.0 mg/kg/injection, schedule: Q01DX001 (ip), vehicle: Klucel (hydroxypropylcellulose) (HPC)) was 0 of 6; the survivor count under setting [6] is given as 0 of 6.

Take `Cc1cc(C)c(-c2c(O)c(Br)c(-c3c(C)cc(C)c(Br)c3C)c(O)c2Br)c(C)c1Br`: the survivor count reads like this: (dose: 100.0 mg/kg/injection, schedule: Q04DX003 (ip), vehicle: Klucel (hydroxypropylcellulose) (HPC)) 2 of 6; (dose: 115.0 mg/kg/injection, schedule: Q01DX009 (ip), vehicle: Klucel (hydroxypropylcellulose) (HPC)) 0 of 6; (dose: 170.0 mg/kg/injection, schedule: Q01DX009 (ip), vehicle: Klucel (hydroxypropylcellulose) (HPC)) 0 of 6; (dose: 200.0 mg/kg/injection, schedule: Q04DX003 (ip), vehicle: Klucel (hydroxypropylcellulose) (HPC)) 0 of 6; under setting [7], 0 of 6.

Consider `CC(=O)OC1C(NC(=O)OCc2ccccc2)CC(NC(=O)OCc2ccccc2)C(O)C1O` (configuration not stated), for which the survivor count under setting [5] is listed as 1 of 6.

On to `Nc1ccnc(OCc2ccccc2)n1`, for which the survivor count under setting [8] was 5 of 6.

For the compound `O=C(CI)Nc1ccc(Cl)c(Cl)c1`, the survivor count under setting [9] is given as 1 of 6, the survivor count under setting [10] is recorded as 0 of 6 and the survivor count under setting [11] is listed as 0 of 6.

Regarding `C[N+]1(CCCl)CCOCC1`, the survivor count runs as follows: (dose: 80.0 mg/kg/injection, schedule: Q01DX009 (ip), vehicle: Klucel (hydroxypropylcellulose) (HPC)) 6 of 6; under setting [9], 3 of 6; under setting [10], 0 of 6; under setting [11], 0 of 6.

For the compound `COc1c(O)c2c(c3cc(C(=O)N4CCc5c4c(O)c(OC)c4[nH]c(C(=O)N6CC7CC78C6=CC(=O)c6[nH]cc(C)c68)cc54)[nH]c13)CCN2C(N)=O` (configuration not stated), the T/C was 132 % of control (dose: 25.0 micrograms/kg/injection, schedule: Q01DX009 (ip), vehicle: DMSO) and 125 % of control (dose: 50.0 micrograms/kg/injection, schedule: Q01DX009 (ip), vehicle: DMSO). Moreover, the survivor count (dose: 200.0 micrograms/kg/injection, schedule: Q01DX009 (ip), vehicle: DMSO) is 6 of 6.

As for `CCCc1c(OCC)c(OC)c2c3c(c(-c4c(C)cc5c(CCC)c(OCC)c(OC)c6c5c4OC6NNc4ccccc4)c(C)cc13)OC2NNc1ccccc1` (configuration not stated), the survivor count is 6 of 6 (dose: 75.0 mg/kg/injection, schedule: Q04DX003 (ip), vehicle: Klucel (hydroxypropylcellulose) (HPC)) and 6 of 6 (dose: 150.0 mg/kg/injection, schedule: Q04DX003 (ip), vehicle: Klucel (hydroxypropylcellulose) (HPC)).

Turning to `Clc1ccc(-c2cc(=[N+]3CC[N+](=c4cc(-c5ccc(Cl)cc5)ss4)CC3)ss2)cc1`, the survivor count (dose: 400.0 mg/kg/injection, schedule: Q01DX009 (ip), vehicle: water) was 3 of 6.

Regarding `BrC1(Br)C2CC/C=C\CCC21` (configuration not stated), the survivor count under setting [12] is given as 0 of 3.

As for `N=C(N)c1cccc(CCCCc2ccc(N)cc2)c1`, the survivor count under setting [7] was 0 of 6.

As to `CC(Oc1ccccc1)C(=O)NC(=S)Nc1ccc(Cl)cc1` (configuration not stated), the T/C (dose: 12.5 mg/kg/injection, schedule: Q04DX002 (ip), vehicle: saline with Tween-80) is 90, 91, 97, 99, 101, 103 % of control; the T/C (dose: 25.0 mg/kg/injection, schedule: Q04DX002 (ip), vehicle: saline with Tween-80) was 89, 91, 97 (2×), 101 % of control [5 of 6 alive]; the T/C under setting [13] is 93, 100, 103, 111, 124 % of control (2×); the T/C under setting [2] is recorded as 86, 90, 91, 93, 95, 101, 109 % of control; the T/C under setting [12] was 88, 91, 97, 102 % of control; the T/C under setting [3] is given as 90, 101, 108 % of control. The survivor count is 3 of 3 under setting [13]; 3 of 3 under setting [2]; 3 of 3 under setting [3]; 0 of 6 under setting [8]; 0 of 3 and 2 of 6 under setting [4].

Turning to `Nc1nc(N)c2cc(CCc3ccccc3)ccc2n1`, the survivor count was 0 of 4 (dose: 400.0 mg/kg/injection, schedule: Q01DX001 (ip), vehicle: carboxymethylcellulose (CMC)) and 0 of 6 under setting [7].
